Test results published in the supplement of paper PMC8728848.
This is one part of the list.

Legend:
Assay in all cases: glycan array binding signal (z-score within array); higher = stronger binding
Settings in all cases: glycan notation: IUPAC condensed, linker removed
[1] = biological target: Gal3S(b1-4)[Fuc(a1-3)]GlcNAc6S
Outline: (§1)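 The binding signal is a Z-score computed within each array. Data were drawn from 3228 arrays in the Consortium for Functional Glycomics database, restricted to those with a known protein sequence. Scores were averaged over arrays of the same protein sequence at different concentrations or buffers, and over linkers, and negative values can be taken as non-binding.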

Gal3S4S(b1-4)GlcNAc = biological target: Gal3S4S(b1-4)GlcNAc
Outline: as §1

Gal3S6S(b1-4)GlcNAc = biological target: Gal3S6S(b1-4)GlcNAc
Outline: as §1

Gal3S6S(b1-4)GlcNAc6S = biological target: Gal3S6S(b1-4)GlcNAc6S
Outline: as §1

Gal4S(b1-4)GlcNAc = biological target: Gal4S(b1-4)GlcNAc
Outline: as §1

Gal4S6S(b1-4)GlcNAc = biological target: Gal4S6S(b1-4)GlcNAc
Outline: as §1

Gal6P(b1-4)GlcNAc = biological target: Gal6P(b1-4)GlcNAc
Outline: as §1

Gal6S(b1-3)GlcNAc = biological target: Gal6S(b1-3)GlcNAc
Outline: as §1

Gal6S(b1-3)GlcNAc6S = biological target: Gal6S(b1-3)GlcNAc6S
Outline: as §1

Gal6S(b1-4)Glc = biological target: Gal6S(b1-4)Glc
Outline: as §1

Gal6S(b1-4)Glc6S = biological target: Gal6S(b1-4)Glc6S
Outline: as §1

Gal6S(b1-4)GlcNAc = biological target: Gal6S(b1-4)GlcNAc
Outline: as §1

Gal6S(b1-4)GlcNAc6S = biological target: Gal6S(b1-4)GlcNAc6S
Outline: as §1

GalNAc(a1-3)Gal = biological target: GalNAc(a1-3)Gal
Outline: as §1

GalNAc(a1-3)GalNAc = biological target: GalNAc(a1-3)GalNAc
Outline: as §1

[2] = biological target: GalNAc(a1-3)GalNAc(b1-3)Gal(a1-4)Gal(b1-4)Glc
Outline: as §1

[3] = biological target: GalNAc(a1-3)GalNAc(b1-3)Gal(a1-4)Gal(b1-4)GlcNAc
Outline: as §1

GalNAc(b1-3)Gal = biological target: GalNAc(b1-3)Gal
Outline: as §1

[4] = biological target: GalNAc(b1-3)Gal(a1-4)Gal(b1-4)GlcNAc
Outline: as §1

[5] = biological target: GalNAc(b1-3)Gal(a1-4)Gal(b1-4)GlcNAc(b1-3)Gal(b1-4)Glc
Outline: as §1

[6] = biological target: GalNAc(b1-3)Gal(a1-6)Gal(b1-4)Glc
Outline: as §1

GalNAc(b1-3)GalNAc = biological target: GalNAc(b1-3)GalNAc
Outline: as §1

GalNAc(b1-3)GlcNAc = biological target: GalNAc(b1-3)GlcNAc
Outline: as §1

GalNAc(b1-4)Gal(b1-4)Glc = biological target: GalNAc(b1-4)Gal(b1-4)Glc
Outline: as §1

GalNAc(b1-4)GlcNAc = biological target: GalNAc(b1-4)GlcNAc
Outline: as §1

[7] = biological target: GalNAc(b1-4)GlcNAc(b1-2)Man
Outline: as §1

[8] = biological target: GalNAc(b1-4)GlcNAc(b1-2)Man(a1-3)[GalNAc(b1-4)GlcNAc(b1-2)Man(a1-6)]Man(b1-4)GlcNAc(b1-4)GlcNAc
Outline: as §1

[9] = biological target: GalNAc(b1-4)GlcNAc(b1-3)GalNAc(b1-4)GlcNAc
Outline: as §1

GalNAc(b1-4)GlcNAc6S = biological target: GalNAc(b1-4)GlcNAc6S
Outline: as §1

GalNAc(b1-6)GalNAc = biological target: GalNAc(b1-6)GalNAc
Outline: as §1

GalNAc3S(b1-4)GlcNAc = biological target: GalNAc3S(b1-4)GlcNAc
Outline: as §1

GalNAc3S(b1-4)GlcNAc3S = biological target: GalNAc3S(b1-4)GlcNAc3S
Outline: as §1

[10] = biological target: GalNAc3S(b1-4)[Fuc(a1-3)]GlcNAc
Outline: as §1

GalNAc4S6S(b1-4)GlcNAc = biological target: GalNAc4S6S(b1-4)GlcNAc
Outline: as §1

GalNAc6S(b1-4)GlcNAc = biological target: GalNAc6S(b1-4)GlcNAc
Outline: as §1

Glc(a1-4)Glc = biological target: Glc(a1-4)Glc
Outline: as §1

[11] = biological target: Glc(a1-4)Glc(a1-4)Glc(a1-4)Glc
Outline: as §1

Glc(a1-6)Glc(a1-6)Glc = biological target: Glc(a1-6)Glc(a1-6)Glc
Outline: as §1

B1: MFG-E8 (Mus musculus), P21956 (protein)
chain: MQVSRVLAALCGMLLCASGLFAASGDFCDSSLCLNGGTCLTGQDNDIYCLCPEGFTGLVCNETERGPCSPNPCYNDAKCLVTLDTQRGDIFTEYICQCPVGYSGIHCETETNYYNLDGEYMFTTAVPNTAVPTPAPTPDLSNNLASRCSTQLGMEGGAIADSQISASSVYMGFMGLQRWGPELARLYRTGIVNAWTASNYDSKPWIQVNLLRKMRVSGVMTQGASRAGRAEYLKTFKVAYSLDGRKFEFIQDESGGDKEFLGNLDNNSLKVNMFNPTLEAQYIKLYPVSCHRGCTLRFELLGCELHGCSEPLGLKNNTIPDSQMSASSSYKTWNLRAFGWYPHLGRLDNQGKINAWTAQSNSAKEWLQVDLGTQRQVTGIITQGARDFGHIQYVASYKVAHSDDGVQWTVYEEQGSSKVFQGNLDNNSHKKNIFEKPFMARYVRVLPVSWHNRITLRLELLGC
[1]
  glycan array binding signal (z-score): 1.86
Gal3S4S(b1-4)GlcNAc
  glycan array binding signal (z-score): 1.21
Gal3S6S(b1-4)GlcNAc
  glycan array binding signal (z-score): 1.75
Gal3S6S(b1-4)GlcNAc6S
  glycan array binding signal (z-score): 2.81
Gal4S(b1-4)GlcNAc
  glycan array binding signal (z-score): -0.4
Gal4S6S(b1-4)GlcNAc
  glycan array binding signal (z-score): 1.29
Gal6P(b1-4)GlcNAc
  glycan array binding signal (z-score): 1.22
Gal6S(b1-3)GlcNAc
  glycan array binding signal (z-score): 0.37
Gal6S(b1-3)GlcNAc6S
  glycan array binding signal (z-score): 3.04
Gal6S(b1-4)Glc
  glycan array binding signal (z-score): 0.149
Gal6S(b1-4)Glc6S
  glycan array binding signal (z-score): 0.108
Gal6S(b1-4)GlcNAc
  glycan array binding signal (z-score): -0.436
Gal6S(b1-4)GlcNAc6S
  glycan array binding signal (z-score): 2.98
GalNAc(a1-3)Gal
  glycan array binding signal (z-score): -0.652
GalNAc(a1-3)GalNAc
  glycan array binding signal (z-score): -0.724
[2]
  glycan array binding signal (z-score): 0.361
[3]
  glycan array binding signal (z-score): -0.695
GalNAc(b1-3)Gal
  glycan array binding signal (z-score): -0.341
[4]
  glycan array binding signal (z-score): -0.154
[5]
  glycan array binding signal (z-score): 0.031
[6]
  glycan array binding signal (z-score): -0.391
GalNAc(b1-3)GalNAc
  glycan array binding signal (z-score): -0.544
GalNAc(b1-3)GlcNAc
  glycan array binding signal (z-score): -0.265
GalNAc(b1-4)Gal(b1-4)Glc
  glycan array binding signal (z-score): 0.017
GalNAc(b1-4)GlcNAc
  glycan array binding signal (z-score): -0.309
[7]
  glycan array binding signal (z-score): -0.038
[8]
  glycan array binding signal (z-score): -0.848
[9]
  glycan array binding signal (z-score): -0.149
GalNAc(b1-4)GlcNAc6S
  glycan array binding signal (z-score): 0.057
GalNAc(b1-6)GalNAc
  glycan array binding signal (z-score): 0.146
GalNAc3S(b1-4)GlcNAc
  glycan array binding signal (z-score): 2.04
GalNAc3S(b1-4)GlcNAc3S
  glycan array binding signal (z-score): 1.39
[10]
  glycan array binding signal (z-score): 0.832
GalNAc4S6S(b1-4)GlcNAc
  glycan array binding signal (z-score): 9.76
GalNAc6S(b1-4)GlcNAc
  glycan array binding signal (z-score): 2.28
Glc(a1-4)Glc
  glycan array binding signal (z-score): -0.125
[11]
  glycan array binding signal (z-score): 0.077
Glc(a1-6)Glc(a1-6)Glc
  glycan array binding signal (z-score): -0.076
